This is one part of the list.
target: OsWRKY34 (Oryza sativa, UniProt Q0JBA9 1-250); assay: protein-binding microarray (RPBM); PBS, 2% BSA, 51.3 ng/ul salmon testes DNA, 50 uM zinc acetate, 200 nM TF, 25 C, 1 h; high values mean tight binding; settings: protein: recombinant; tags: N-terminal polyhistidine and DsRed monomer fusion (pET32a); label: CyDye5-dUTP incorporated in the synthesized complementary strand; 3' TTTTT single-stranded linker to array surface; dsDNA, one strand shown
Outline: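 A custom Agilent array was converted to double-stranded form by primer extension with Cy5-dUTP and blocked with 2% BSA. Protein at 200 nM in PBS with 2% BSA, salmon testes DNA and 50 µM zinc acetate was applied for 1 h at 25 °C, followed by washing. The proteins were polyhistidine–DsRed N-terminal fusions of transcription factors, expressed in E. coli BL21-CodonPlus and Ni–NTA-purified. The binding signal is per-feature fluorescence intensity (arbitrary units) from an Axon 4000B scanner.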

By UniProt entry, the sequences of proteins in these tests, tags left out.
UniProt Q0JBA9, entry or part of it: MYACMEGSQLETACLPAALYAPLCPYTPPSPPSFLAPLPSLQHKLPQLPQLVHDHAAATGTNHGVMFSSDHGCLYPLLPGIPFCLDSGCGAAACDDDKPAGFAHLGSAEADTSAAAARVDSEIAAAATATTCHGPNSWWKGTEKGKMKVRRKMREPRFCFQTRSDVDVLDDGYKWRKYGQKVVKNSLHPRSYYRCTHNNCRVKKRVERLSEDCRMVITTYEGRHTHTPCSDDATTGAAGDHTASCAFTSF

Sequence | binding signal
TTTAGTAATCCCAACAGATGCAATTTTTTTTGGTTCGTCCCGGAGTCACCTAGTGCAG | 8180 fluorescence intensity (a.u.)
TTTGAATGATATATGGATCCCACATTTTTTTCTAGTTTTACGGAGTCACCTAGTGCAG | 8390 fluorescence intensity (a.u.)
GCTAAAAGAGTTTCCCATATTTCTGCTACCTATTCTTTTCCGGAGTCACCTAGTGCAG | 8330 fluorescence intensity (a.u.)
ATGCCCGCCGCCGCTCGCCGCTCTCGACCCGGTGCTCCGCCGGAGTCACCTAGTGCAG | 9630 fluorescence intensity (a.u.)
CCCACTCCACCACCCCACCCCGCATGGCCCGGATCTAATACGGAGTCACCTAGTGCAG | 8020 fluorescence intensity (a.u.)
ATTCTGATTGGGTGTGGTTGGTTTGATTTTCTGTTAAGCACGGAGTCACCTAGTGCAG | 11700 fluorescence intensity (a.u.)
TTTTTTTGCTTTCTATCAGTTTATTCGGGGCAGTTCTTTCCGGAGTCACCTAGTGCAG | 14800 fluorescence intensity (a.u.)
TCACCGCCGTCCGCAGCGATACACCACCGCGATCTCCTCGCGGAGTCACCTAGTGCAG | 10400 fluorescence intensity (a.u.)
GCGCTCTCGCCTCTTGCTCGCTCGCTCGCTCGCTGCGCCGCGGAGTCACCTAGTGCAG | 9860 fluorescence intensity (a.u.)
GAAAATACCCGGCCCGCGAGTTGGATCCTTTTCCAAAAGCCGGAGTCACCTAGTGCAG | 8850 fluorescence intensity (a.u.)
TCTCTCTCTCGATTTTCTCATCTCCACTGCTCCACGCTTCCGGAGTCACCTAGTGCAG | 11800 fluorescence intensity (a.u.)
TTGGCATCGACACGGTCTCCAAAACACAACTTTAACTTCTCGGAGTCACCTAGTGCAG | 8720 fluorescence intensity (a.u.)
GTTCTTTCGTCGTGGATTGTTTCTAGCTTTCTGCAAGTGACGGAGTCACCTAGTGCAG | 15600 fluorescence intensity (a.u.)
TTTTCTCATTCTCACTTACATGTGGGCCCAATAACTTTTTCGGAGTCACCTAGTGCAG | 8340 fluorescence intensity (a.u.)
TCATCTGGTGTAGGCATTAACTGCAACTCGAGTCATTTTCCGGAGTCACCTAGTGCAG | 8260 fluorescence intensity (a.u.)
TGAGGGGTCTTAATATTTTGATAATTATTCGTTAGCGTATCGGAGTCACCTAGTGCAG | 8550 fluorescence intensity (a.u.)
GGCCGGCGAGGTGAGGGTACGCCGCGACGGCCCTGAGGAGCGGAGTCACCTAGTGCAG | 8400 fluorescence intensity (a.u.)
AAAGTTCATGGCTACTGCTCTTTTGCTGTATGGTTTACATCGGAGTCACCTAGTGCAG | 9120 fluorescence intensity (a.u.)
GTCTACTACCTGAAACTCTCAGTCAGTCCGAAATTAAACACGGAGTCACCTAGTGCAG | 9000 fluorescence intensity (a.u.)
GGTTGTTAGATTTGGGGCTAGGGTTAAAAGATATGCTAGGCGGAGTCACCTAGTGCAG | 8880 fluorescence intensity (a.u.)
AAATTAGTACTGATCTTGTCCCGCTCAAGGCCTCAAACCTCGGAGTCACCTAGTGCAG | 8270 fluorescence intensity (a.u.)
TTTTTGCGTTTCATACTAAAATCCTATGTTTTTTTTTTCGCGGAGTCACCTAGTGCAG | 9420 fluorescence intensity (a.u.)
TGCAGTGTGTGTGTGTGTGTGTGTGTCCATGTGAATATGTCGGAGTCACCTAGTGCAG | 10300 fluorescence intensity (a.u.)
TGCCAGTAACTTTGGTAGGTTTGTTTGTTTCTAGTTCTTTCGGAGTCACCTAGTGCAG | 12700 fluorescence intensity (a.u.)
CACAGTCCTACCCACCAACCTTAGGCTTGCTCCACCTTAGCGGAGTCACCTAGTGCAG | 8720 fluorescence intensity (a.u.)
GGCGCTGTTAGTAATACTGGAATATTGCCCTTGTCTTTGTCGGAGTCACCTAGTGCAG | 8570 fluorescence intensity (a.u.)
GGCATCCTCTATCCCGTCGCCACGTCCTCCGCCGCGGCGGCGGAGTCACCTAGTGCAG | 13700 fluorescence intensity (a.u.)

Reformatted as tab-separated lines: entries from further up.
Sequence	binding signal
TTTAGTAATCCCAACAGATGCAATTTTTTTTGGTTCGTCCCGGAGTCACCTAGTGCAG	8180 fluorescence intensity (a.u.)
TTTGAATGATATATGGATCCCACATTTTTTTCTAGTTTTACGGAGTCACCTAGTGCAG	8390 fluorescence intensity (a.u.)
GCTAAAAGAGTTTCCCATATTTCTGCTACCTATTCTTTTCCGGAGTCACCTAGTGCAG	8330 fluorescence intensity (a.u.)
ATGCCCGCCGCCGCTCGCCGCTCTCGACCCGGTGCTCCGCCGGAGTCACCTAGTGCAG	9630 fluorescence intensity (a.u.)

(cont.)

Sequence | binding signal
TATGGCCCTGTTTAGTTCCCATGCAAAAATTTTACACCATCGGAGTCACCTAGTGCAG | 9300 fluorescence intensity (a.u.)
TCGTTCATCTCATTCTTACCCCTATTCCTTCTACCAAACACGGAGTCACCTAGTGCAG | 8720 fluorescence intensity (a.u.)
CGGCCACTTCCACATCGCCATTAATGAGCCTGGAGCAAGCCGGAGTCACCTAGTGCAG | 9110 fluorescence intensity (a.u.)
TCAATCTTGGCCACTTGTATTCATCTCTAACTATTCTTTACGGAGTCACCTAGTGCAG | 8530 fluorescence intensity (a.u.)
GTCCACTAGCTCTCCACTCATCGTCACACGTTTTCGTACGCGGAGTCACCTAGTGCAG | 9470 fluorescence intensity (a.u.)
GAGAGGTGAGTTTATATTCCTTGGTTTCTAATTTGGCTGACGGAGTCACCTAGTGCAG | 10300 fluorescence intensity (a.u.)
TCGCATCCACACCTGTTTCCATCGTCCGTCACCACGTGCACGGAGTCACCTAGTGCAG | 9400 fluorescence intensity (a.u.)
GTAGTTTCCAGTTTCCTCGTACTCTCTCCCGGCAATAATTCGGAGTCACCTAGTGCAG | 14800 fluorescence intensity (a.u.)
GCTTCTCCATCTCGCATCTGCTGCCTCCTAATTTGCTTCGCGGAGTCACCTAGTGCAG | 10000 fluorescence intensity (a.u.)
TCTCTCTCTCTCTGCTTCTCTCACACTCTACTGCTGCTCACGGAGTCACCTAGTGCAG | 12000 fluorescence intensity (a.u.)
CCCCGACTCCCGTCTCCTCGCATTCGCTCACCGGTGAGCACGGAGTCACCTAGTGCAG | 8750 fluorescence intensity (a.u.)
GCATCCCCGTCTCATCCCTCCCCGCATGTCCCTCTACAGTCGGAGTCACCTAGTGCAG | 8110 fluorescence intensity (a.u.)
ATCCATTCCTTGATTTCTCTAGTGAGCTTCGCCGCATTTCCGGAGTCACCTAGTGCAG | 12800 fluorescence intensity (a.u.)
TCATTTTTTTTGAACCTGGTATGTTTGGGCTTTATTATAACGGAGTCACCTAGTGCAG | 9400 fluorescence intensity (a.u.)
TCATCGTTTGGCTTTTCCACTAATAAGCCAAAACAGTTTACGGAGTCACCTAGTGCAG | 8580 fluorescence intensity (a.u.)
CTCTGGCTCTGTCCCCTCGCGCCCTCGCAGCCATGGCCGTCGGAGTCACCTAGTGCAG | 8460 fluorescence intensity (a.u.)
TCTTCTTGTTCTTCTCCATCTCTAAGCACTTCTACCTAACCGGAGTCACCTAGTGCAG | 10100 fluorescence intensity (a.u.)
ATGTGGTTGCAAGGGCAGGGTAATGTTGAGCGCTGAATACCGGAGTCACCTAGTGCAG | 9110 fluorescence intensity (a.u.)
AATGGTGGTGGTGGAATCAATCAATCAATCGATCGATCAACGGAGTCACCTAGTGCAG | 9630 fluorescence intensity (a.u.)
ACGTCAATCCACGTCTCTTCGTGTCTAGGATCCACACGTCCGGAGTCACCTAGTGCAG | 10600 fluorescence intensity (a.u.)
TTGCTCCTGGACCGGACGACGACGGCGGTGGCGGCATTGACGGAGTCACCTAGTGCAG | 8330 fluorescence intensity (a.u.)
GCTAATATATTTTTTTACAAATTTGGTTTAAATTTGACCTCGGAGTCACCTAGTGCAG | 9080 fluorescence intensity (a.u.)
ATTATTTATTTTATTTGTGACATACTTTATTATCTACAGTCGGAGTCACCTAGTGCAG | 8080 fluorescence intensity (a.u.)
GCGTCGGATTTCATGCTCTCATGCCTCCACTTGGAACGCACGGAGTCACCTAGTGCAG | 11600 fluorescence intensity (a.u.)
ACCGCACCACCACCACCACCACCACCACCGCAACCGAACACGGAGTCACCTAGTGCAG | 8220 fluorescence intensity (a.u.)
ACGAAAACCACAACTATCACACAACACCATCAGCTAATCTCGGAGTCACCTAGTGCAG | 8830 fluorescence intensity (a.u.)
TTGGATTGCAGTGGGGCGGACGGCGGTGGGCGGGGCTTCTCGGAGTCACCTAGTGCAG | 27600 fluorescence intensity (a.u.)

Source: paper PMC7819943, “Rice protein-binding microarrays: a tool to detect cis-acting elements near promoter regions in rice”
